Results are given in words; binding and its absence hold for the method and conditions named. Some entries that bind do so weakly or less than the wild type.
Molecular target: T1, mouse E-selectin on IL-1β-activated mouse tEnd.1 endothelioma cells (mouse) (UniProt Q00690)
T1 sequence (looked up): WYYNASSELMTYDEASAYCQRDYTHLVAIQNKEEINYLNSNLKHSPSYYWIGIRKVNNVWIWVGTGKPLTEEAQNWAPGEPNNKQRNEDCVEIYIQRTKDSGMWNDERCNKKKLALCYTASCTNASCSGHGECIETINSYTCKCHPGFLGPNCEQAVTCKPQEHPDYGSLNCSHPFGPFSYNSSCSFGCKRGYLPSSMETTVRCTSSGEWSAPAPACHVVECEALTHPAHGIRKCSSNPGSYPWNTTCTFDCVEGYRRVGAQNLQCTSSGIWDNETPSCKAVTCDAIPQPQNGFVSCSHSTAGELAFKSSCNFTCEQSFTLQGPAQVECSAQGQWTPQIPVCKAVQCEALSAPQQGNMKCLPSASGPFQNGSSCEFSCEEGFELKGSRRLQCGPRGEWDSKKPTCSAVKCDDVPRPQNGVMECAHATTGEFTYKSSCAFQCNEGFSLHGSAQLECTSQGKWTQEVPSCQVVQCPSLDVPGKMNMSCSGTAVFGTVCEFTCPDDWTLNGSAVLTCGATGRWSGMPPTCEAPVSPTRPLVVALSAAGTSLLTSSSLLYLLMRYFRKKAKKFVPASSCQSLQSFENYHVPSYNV
Assay: inferred from inhibition of cell adhesion to activated tEnd.1 cells

binding: binds
B1: soluble lamp-1 containing the sialyl Le^x moiety (CHO cells co-transfected with pSRαs-lamp-1 and the Fuc-TIII vector) (protein, UniProt P11279 29-382, looked up)
chain: AMFMVKNGNGTACIMANFSAAFSVNYDTKSGPKNMTFDLPSDATVVLNRSSCGKENTSDPSLVIAFGRGHTLTLNFTRNATRYSVQLMSFVYNLSDTHLFPNASSKEIKTVESITDIRADIDKKYRCVSGTQVHMNNVTVTLHDATIQAYLSNSSFSRGETRCEQDRPSPTTAPPAPPSPSPSPVPKSPSVDKYNVSGTNGTCLLASMGLQLNLTYERKDNTTVTRLLNINPNKTSASGSCGAHLVTLELHSEGTTVLLFQFGMNASSSRFFLQGIQLNTILPDARDPAFKAANGSLRALQATVGNSYKCNAEEHVRVTKAFSVNIFKVWVQAFKVEGGQFGSVEECLLDENSM
modifications: glycans carrying the sialyl Le^x determinant; sites not stated
